Results: patent publication US7186855B2, “Prodrugs of GABA analogs, compositions and uses thereof” (Xenoport, Inc., priority 2001, dated 2007)
For at least one compound, name, drawing or mass did not settle the structure.

The compounds below were run on Caco-2 cells (assay: In vitro determination of Caco-2 cellular permeability of prodrugs). Conditions: Caco-2 monolayer, pH 6.5 apical / pH 7.4 basolateral, prodrug 200 μM, efflux pump inhibitors present.
For `CC(OC(=O)NCC1(CC(=O)O)CCCCC1)OC(=O)C(C)C` (stereo not drawn) [(77), 1-{[(α-Isobutanoyloxyethoxy)carbonyl]aminomethyl}-1-Cyclohexane Acetic Acid], the “Papp (apical to basolateral)” value was 7.41e-05 cm/s and the “Papp (basolateral to apical)” value was 1.43e-05 cm/s. `CCCC(OC(=O)NCC1(CC(=O)O)CCCCC1)OC(=O)c1ccccc1` (stereo not drawn) [(69), 1-{[(α-Benzoyloxybutoxy)carbonyl]aminomethyl}-1-Cyclohexane Acetic Acid] was tested, and the “Papp (apical to basolateral)” value was 0.000184 cm/s and the “Papp (basolateral to apical)” value was 5.22e-06 cm/s. In the case of `CC(C)C(OC(=O)NCC1(CC(=O)O)CCCCC1)OC(=O)c1ccccc1` (stereo not drawn) [(84), 1-{[(α-Benzoyloxyisobutoxy)carbonyl]aminomethyl}-1-Cyclohexane Acetic Acid], the “Papp (apical to basolateral)” value was 0.000126 cm/s and the “Papp (basolateral to apical)” value was 1.57e-05 cm/s. With `CC(C)CC(=O)OC(Cc1ccccc1)OC(=O)NCC1(CC(=O)O)CCCCC1` (centres unmarked) [(68), 1-{[(1-(3-Methylbutanoyloxy)-2-phenylethoxy)carbonyl]aminomethyl}-1-Cyclohexane Acetic Acid] the “Papp (apical to basolateral)” value was 8.43e-05 cm/s and the “Papp (basolateral to apical)” value was 2.26e-05 cm/s.
